Reference: the supplement of paper PMC10849652
The other results are listed elsewhere or left out.

Protein sequences, listed by entry. Tags and fused reporters are not part of them. Lines headed by an entry give the natural chain unless they say otherwise; changes in a name come on top.
UniProt Q9BXV9: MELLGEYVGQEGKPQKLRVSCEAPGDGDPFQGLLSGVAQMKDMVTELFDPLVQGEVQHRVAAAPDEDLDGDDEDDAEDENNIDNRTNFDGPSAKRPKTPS
UniProt Q9BRX5: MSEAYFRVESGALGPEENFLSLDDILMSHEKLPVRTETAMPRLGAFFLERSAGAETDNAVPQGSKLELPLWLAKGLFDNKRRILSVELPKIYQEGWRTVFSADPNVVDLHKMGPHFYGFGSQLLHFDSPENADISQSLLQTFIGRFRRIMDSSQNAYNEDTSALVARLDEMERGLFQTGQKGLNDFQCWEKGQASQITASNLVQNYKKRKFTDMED
UniProt Q3T8J9: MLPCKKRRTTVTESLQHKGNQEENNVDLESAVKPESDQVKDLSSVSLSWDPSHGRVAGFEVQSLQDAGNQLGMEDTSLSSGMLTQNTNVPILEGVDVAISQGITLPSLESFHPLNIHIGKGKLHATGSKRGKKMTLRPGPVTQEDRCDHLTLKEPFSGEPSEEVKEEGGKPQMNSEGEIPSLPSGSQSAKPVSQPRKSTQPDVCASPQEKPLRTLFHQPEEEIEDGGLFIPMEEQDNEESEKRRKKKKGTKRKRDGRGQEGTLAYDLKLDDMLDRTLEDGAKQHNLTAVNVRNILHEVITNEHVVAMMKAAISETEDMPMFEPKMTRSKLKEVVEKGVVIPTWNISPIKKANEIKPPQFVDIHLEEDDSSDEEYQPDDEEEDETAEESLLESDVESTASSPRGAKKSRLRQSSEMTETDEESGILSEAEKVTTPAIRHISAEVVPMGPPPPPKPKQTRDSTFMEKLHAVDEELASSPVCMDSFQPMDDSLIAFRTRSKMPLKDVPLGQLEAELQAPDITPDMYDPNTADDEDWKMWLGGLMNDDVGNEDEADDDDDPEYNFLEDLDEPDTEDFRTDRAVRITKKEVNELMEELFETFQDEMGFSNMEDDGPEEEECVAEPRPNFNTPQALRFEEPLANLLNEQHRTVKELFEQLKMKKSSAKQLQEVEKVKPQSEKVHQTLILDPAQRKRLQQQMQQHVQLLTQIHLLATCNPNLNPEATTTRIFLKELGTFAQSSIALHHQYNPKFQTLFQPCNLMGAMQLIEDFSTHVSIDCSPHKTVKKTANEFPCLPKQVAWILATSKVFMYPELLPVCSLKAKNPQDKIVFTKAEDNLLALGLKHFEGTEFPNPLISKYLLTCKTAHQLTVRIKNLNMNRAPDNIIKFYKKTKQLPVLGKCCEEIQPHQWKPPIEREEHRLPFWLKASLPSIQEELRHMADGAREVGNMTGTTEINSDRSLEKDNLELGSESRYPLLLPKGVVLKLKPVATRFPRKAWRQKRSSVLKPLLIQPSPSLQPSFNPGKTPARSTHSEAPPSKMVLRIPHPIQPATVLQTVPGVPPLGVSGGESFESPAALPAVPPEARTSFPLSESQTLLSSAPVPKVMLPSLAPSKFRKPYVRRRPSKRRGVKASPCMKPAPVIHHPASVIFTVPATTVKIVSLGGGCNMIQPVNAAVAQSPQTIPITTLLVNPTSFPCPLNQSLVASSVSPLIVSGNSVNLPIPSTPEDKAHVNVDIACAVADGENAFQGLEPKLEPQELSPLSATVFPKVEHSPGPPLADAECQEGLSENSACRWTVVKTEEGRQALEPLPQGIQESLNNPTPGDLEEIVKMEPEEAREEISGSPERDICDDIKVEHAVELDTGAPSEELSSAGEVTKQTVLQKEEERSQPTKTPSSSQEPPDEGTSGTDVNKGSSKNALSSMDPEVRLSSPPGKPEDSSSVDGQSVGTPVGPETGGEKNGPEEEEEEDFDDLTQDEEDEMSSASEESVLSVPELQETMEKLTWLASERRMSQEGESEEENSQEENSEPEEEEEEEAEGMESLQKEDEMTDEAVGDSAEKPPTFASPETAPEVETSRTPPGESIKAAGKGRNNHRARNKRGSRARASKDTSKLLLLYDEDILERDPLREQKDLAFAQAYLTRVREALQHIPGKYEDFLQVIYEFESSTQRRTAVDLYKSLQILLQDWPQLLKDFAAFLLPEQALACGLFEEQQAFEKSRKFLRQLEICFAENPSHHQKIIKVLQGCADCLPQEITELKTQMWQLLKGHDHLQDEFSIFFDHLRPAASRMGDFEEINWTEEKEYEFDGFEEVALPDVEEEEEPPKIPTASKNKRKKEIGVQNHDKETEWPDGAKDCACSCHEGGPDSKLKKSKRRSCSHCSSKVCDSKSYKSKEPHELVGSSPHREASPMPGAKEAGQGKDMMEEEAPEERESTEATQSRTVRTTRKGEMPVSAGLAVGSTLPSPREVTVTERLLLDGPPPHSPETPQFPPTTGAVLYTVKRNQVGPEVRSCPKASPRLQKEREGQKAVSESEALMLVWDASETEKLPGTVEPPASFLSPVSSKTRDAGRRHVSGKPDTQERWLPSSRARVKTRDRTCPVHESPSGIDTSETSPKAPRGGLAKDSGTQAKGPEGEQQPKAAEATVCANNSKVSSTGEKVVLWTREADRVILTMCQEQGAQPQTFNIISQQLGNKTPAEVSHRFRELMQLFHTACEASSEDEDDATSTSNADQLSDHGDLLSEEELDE
UniProt P60983, whole entry, looked up: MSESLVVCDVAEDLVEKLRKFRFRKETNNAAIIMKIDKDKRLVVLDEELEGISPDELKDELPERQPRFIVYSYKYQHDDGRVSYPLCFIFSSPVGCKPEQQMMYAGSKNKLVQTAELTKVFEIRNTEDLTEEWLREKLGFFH
UniProt Q14161: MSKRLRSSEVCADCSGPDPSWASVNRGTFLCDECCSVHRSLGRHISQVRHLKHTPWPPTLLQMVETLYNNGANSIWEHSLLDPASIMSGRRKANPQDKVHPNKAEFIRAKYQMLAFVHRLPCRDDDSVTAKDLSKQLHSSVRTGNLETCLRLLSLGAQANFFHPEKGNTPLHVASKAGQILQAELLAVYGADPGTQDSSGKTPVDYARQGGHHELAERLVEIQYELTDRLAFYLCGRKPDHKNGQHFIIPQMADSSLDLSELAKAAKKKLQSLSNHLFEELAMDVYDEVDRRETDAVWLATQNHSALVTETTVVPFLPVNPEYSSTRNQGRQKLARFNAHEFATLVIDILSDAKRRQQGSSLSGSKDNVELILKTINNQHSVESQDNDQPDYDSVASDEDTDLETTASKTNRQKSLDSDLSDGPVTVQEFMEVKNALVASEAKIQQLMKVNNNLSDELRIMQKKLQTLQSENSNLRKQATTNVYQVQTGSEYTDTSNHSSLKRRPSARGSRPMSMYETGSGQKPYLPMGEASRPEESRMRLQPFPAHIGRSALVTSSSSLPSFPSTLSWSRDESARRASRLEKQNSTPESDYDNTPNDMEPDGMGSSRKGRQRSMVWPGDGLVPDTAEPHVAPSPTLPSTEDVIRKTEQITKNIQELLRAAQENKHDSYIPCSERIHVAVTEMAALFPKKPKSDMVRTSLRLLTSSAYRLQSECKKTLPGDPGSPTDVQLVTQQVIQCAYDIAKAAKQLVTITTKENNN
UniProt O00461: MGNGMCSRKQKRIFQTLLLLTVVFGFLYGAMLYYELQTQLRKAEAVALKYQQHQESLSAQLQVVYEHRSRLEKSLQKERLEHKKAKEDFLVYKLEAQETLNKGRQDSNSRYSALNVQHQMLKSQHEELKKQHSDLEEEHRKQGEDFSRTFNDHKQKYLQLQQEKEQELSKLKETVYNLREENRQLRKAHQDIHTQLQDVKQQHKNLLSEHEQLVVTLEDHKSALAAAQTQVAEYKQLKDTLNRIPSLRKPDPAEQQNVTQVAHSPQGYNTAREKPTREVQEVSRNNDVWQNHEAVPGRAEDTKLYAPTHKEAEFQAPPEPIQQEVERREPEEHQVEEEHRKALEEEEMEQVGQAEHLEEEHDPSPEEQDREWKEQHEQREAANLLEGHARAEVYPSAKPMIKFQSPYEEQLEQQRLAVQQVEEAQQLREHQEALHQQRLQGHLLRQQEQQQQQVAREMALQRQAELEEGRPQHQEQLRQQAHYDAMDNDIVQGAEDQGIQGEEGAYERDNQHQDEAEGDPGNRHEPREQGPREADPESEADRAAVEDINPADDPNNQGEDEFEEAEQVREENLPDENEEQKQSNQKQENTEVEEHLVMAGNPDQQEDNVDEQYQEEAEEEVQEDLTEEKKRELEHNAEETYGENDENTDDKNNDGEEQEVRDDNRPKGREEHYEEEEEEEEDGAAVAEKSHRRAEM
UniProt Q13098: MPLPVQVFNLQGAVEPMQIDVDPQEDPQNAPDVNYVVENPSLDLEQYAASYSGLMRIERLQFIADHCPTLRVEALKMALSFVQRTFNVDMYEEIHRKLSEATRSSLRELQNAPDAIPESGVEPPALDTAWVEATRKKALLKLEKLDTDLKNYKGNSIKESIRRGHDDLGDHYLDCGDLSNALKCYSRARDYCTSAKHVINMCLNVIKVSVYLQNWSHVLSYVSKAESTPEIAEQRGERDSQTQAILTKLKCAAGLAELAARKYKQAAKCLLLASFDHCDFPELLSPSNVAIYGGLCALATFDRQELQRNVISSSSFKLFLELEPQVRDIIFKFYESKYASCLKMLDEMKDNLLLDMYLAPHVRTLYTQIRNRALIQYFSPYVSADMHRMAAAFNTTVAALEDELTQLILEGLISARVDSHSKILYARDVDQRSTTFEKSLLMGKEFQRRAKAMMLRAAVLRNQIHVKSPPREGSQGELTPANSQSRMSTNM
UniProt Q9NQX3: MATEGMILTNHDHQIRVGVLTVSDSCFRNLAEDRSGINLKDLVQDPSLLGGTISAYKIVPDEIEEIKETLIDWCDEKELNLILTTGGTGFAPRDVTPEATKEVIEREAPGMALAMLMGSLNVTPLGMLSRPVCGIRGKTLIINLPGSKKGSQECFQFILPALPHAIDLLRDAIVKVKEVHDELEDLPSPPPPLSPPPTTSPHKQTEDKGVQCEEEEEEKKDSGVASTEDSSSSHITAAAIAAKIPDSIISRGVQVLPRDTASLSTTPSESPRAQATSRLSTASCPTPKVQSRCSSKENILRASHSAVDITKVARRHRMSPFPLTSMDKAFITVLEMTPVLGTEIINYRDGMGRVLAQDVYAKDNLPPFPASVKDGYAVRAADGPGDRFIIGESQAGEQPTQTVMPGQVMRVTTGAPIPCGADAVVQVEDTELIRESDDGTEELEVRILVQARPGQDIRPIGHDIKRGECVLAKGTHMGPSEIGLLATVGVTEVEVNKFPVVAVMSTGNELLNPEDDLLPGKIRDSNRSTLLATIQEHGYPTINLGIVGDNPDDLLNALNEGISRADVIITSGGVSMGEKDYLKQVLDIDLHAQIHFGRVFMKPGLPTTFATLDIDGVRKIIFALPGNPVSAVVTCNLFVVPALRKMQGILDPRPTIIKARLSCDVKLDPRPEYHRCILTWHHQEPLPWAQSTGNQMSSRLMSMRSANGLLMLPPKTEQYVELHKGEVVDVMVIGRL
UniProt Q53EU6: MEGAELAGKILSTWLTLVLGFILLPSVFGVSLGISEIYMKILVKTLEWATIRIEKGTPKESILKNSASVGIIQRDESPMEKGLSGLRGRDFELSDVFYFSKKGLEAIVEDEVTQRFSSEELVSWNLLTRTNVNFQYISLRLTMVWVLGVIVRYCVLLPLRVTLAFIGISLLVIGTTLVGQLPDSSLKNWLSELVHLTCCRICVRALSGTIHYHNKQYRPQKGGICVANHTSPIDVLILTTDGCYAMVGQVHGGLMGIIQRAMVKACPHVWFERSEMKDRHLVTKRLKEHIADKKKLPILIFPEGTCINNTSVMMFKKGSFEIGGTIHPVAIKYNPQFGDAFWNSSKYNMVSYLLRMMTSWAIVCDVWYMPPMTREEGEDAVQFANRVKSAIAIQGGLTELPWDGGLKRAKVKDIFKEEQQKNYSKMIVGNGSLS
UniProt Q9H4A6: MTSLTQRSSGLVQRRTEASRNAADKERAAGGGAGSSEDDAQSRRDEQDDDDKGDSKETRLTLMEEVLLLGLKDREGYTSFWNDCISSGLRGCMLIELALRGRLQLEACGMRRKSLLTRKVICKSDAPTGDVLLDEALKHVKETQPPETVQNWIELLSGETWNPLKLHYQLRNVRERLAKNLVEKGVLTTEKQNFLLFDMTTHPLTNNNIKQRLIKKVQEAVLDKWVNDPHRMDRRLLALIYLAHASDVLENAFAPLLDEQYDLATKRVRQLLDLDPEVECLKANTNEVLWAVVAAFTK
UniProt Q9NS18: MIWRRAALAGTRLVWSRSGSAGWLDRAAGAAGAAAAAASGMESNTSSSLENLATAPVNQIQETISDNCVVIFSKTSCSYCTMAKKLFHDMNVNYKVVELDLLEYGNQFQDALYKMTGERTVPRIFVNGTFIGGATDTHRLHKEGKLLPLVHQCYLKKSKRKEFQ
UniProt Q14691: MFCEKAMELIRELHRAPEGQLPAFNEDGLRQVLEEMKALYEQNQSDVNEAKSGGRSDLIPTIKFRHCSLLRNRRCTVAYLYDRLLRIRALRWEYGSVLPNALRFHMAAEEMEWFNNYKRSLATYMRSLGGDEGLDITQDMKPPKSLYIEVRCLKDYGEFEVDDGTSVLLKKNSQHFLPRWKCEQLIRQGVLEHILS

How the values were obtained:
Experiment in all cases: log2 fold change, soluble protein after heating vs DMSO (PISA); higher = thermal stabilisation; K562 lysate, 10 uM; active = over 0.2 and 3.5 SD of the protein, either way, in both replicates (recomputed)
alvocidib = compound: CN1CC[C@H](c2c(O)cc(O)c3c(=O)cc(-c4ccccc4Cl)oc23)[C@H](O)C1 [alvocidib]
Procedure, shortened: (§1)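 K562 pellets were dounce-homogenised in PBS pH 7.4 containing 1 mM MgCl2, and the crude extract, at 1 mg/mL protein, was exposed to 10 μM compound for 30 min. Aliquots were heated for 3 min across 48°C-58°C, pooled, brought to 0.5% NP-40 at 4°C and spun at 21,000xg for 90 min, with the supernatant taken as soluble protein. TMTpro 16plex LC-MS/MS with equalised channel sums quantified that protein. Values are log-two fold changes in thermal stability relative to solvent controls, taken from duplicates.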

Tubastatin A = compound: CN1CCc2c(c3ccccc3n2Cc2ccc(C(=O)NO)cc2)C1 [Tubastatin A]
Procedure, shortened: as §1

[1] = compound: CNC(=O)C1=CC=CC=C1NC2=NC(=NC=C2Cl)NC3=C(C=C(C=C3)N4CCOCC4)OC
Procedure, shortened: as §1

defactinib = compound: CNC(=O)c1ccc(Nc2ncc(C(F)(F)F)c(NCc3nccnc3N(C)S(C)(=O)=O)n2)cc1 [defactinib]
Procedure, shortened: as §1

[2] = compound: CNc1nc(-c2ccc3c(N)n[nH]c3c2)cc(N2C[C@@H](C(=O)NC3CCCCC3)CC[C@H]2C)n1
Procedure, shortened: as §1

encorafenib = compound: COC(=O)N[C@@H](C)CNc1nccc(-c2cn(C(C)C)nc2-c2cc(Cl)cc(NS(C)(=O)=O)c2F)n1 [encorafenib]
Procedure, shortened: as §1

[3] = compound: COC(=O)[C@H](CCSC)NC(=O)C1=C(C=C(C=C1)NC[C@H](CS)N)C2=CC=CC=C2
Procedure, shortened: as §1

alisertib = compound: COc1cc(Nc2ncc3c(n2)-c2ccc(Cl)cc2C(c2c(F)cccc2OC)=NC3)ccc1C(=O)O [alisertib]
Procedure, shortened: as §1

[4] = compound: COc1cc2nc(-c3cc(F)ccc3O)nc(N[C@@H]3CNC[C@H]3C(C)(C)O)c2cc1OC
Procedure, shortened: as §1

gefitinib = compound: COc1cc2ncnc(Nc3ccc(F)c(Cl)c3)c2cc1OCCCN1CCOCC1 [gefitinib]
Procedure, shortened: as §1

Row | Target | log2 fold change (alvocidib) | log2 fold change (Tubastatin A) | log2 fold change [1] | log2 fold change (defactinib) | log2 fold change [2] | log2 fold change (encorafenib) | log2 fold change [3] | log2 fold change (alisertib) | log2 fold change [4] | log2 fold change (gefitinib)
1 | GON7 (UniProt Q9BXV9) | inactive: 0.081 | inactive: 0.105 | inactive: 0.082 | inactive: 0.003 | inactive: 0.065 | inactive: -0.082 | inactive: -0.112 | inactive: 0.028 | inactive: -0.051 | inactive: -0.103
2 | GINS3 (UniProt Q9BRX5) | inactive: 0.032 | inactive: -0.04 | inactive: 0.018 | inactive: 0.002 | inactive: -0.016 | inactive: -0.025 | inactive: -0.102 | inactive: 0.018 | inactive: -0.042 | inactive: -0.016
3 | GON4L (UniProt Q3T8J9) | inactive: 0.019 | inactive: -0.114 | inactive: 0.028 | inactive: -0.001 | inactive: 0.007 | inactive: 0.092 | inactive: 0.107 | inactive: -0.015 | inactive: -0.027 | inactive: -0.074
4 | GMFB (UniProt P60983) | inactive: 0.009 | inactive: 0.02 | inactive: -0.007 | inactive: 0.033 | inactive: -0.052 | inactive: 0.056 | inactive: -0.067 | inactive: 0.043 | inactive: 0.016 | inactive: -0.033
5 | GNPDA2 (UniProt Q8TDQ7) | inactive: 0.076 | inactive: -0.05 | inactive: -0.017 | inactive: -0.02 | inactive: -0.029 | inactive: -0.068 | inactive: -0.006 | inactive: -0.003 | inactive: 0.009 | inactive: 0.012
6 | GIT2 (UniProt Q14161) | inactive: 0.019 | inactive: -0.083 | inactive: -0.007 | inactive: 0 | inactive: 0.059 | inactive: 0.055 | inactive: -0.001 | inactive: 0.001 | inactive: 0.021 | inactive: 0.008
7 | GORASP2 isoform 3 (UniProt Q9H8Y8) | inactive: -0.027 | inactive: -0.029 | inactive: -0.016 | inactive: -0.029 | inactive: -0.008 | inactive: 0.032 | inactive: 0.062 | inactive: 0.011 | inactive: -0.024 | inactive: 0.006
8 | GOLIM4 (UniProt O00461) | inactive: 0.063 | inactive: 0.048 | inactive: -0.03 | inactive: -0.037 | inactive: 0.022 | inactive: 0.061 | inactive: -0.018 | inactive: -0.009 | inactive: -0.042 | inactive: 0.062
9 | GPS1 isoform 6 (UniProt Q13098) | inactive: -0.043 | inactive: -0.014 | inactive: -0.042 | inactive: 0 | inactive: -0.047 | inactive: 0.035 | inactive: -0.016 | inactive: -0.035 | inactive: 0.024 | inactive: 0
10 | GPHN isoform 2 (UniProt Q9NQX3) | inactive: 0.001 | inactive: 0.041 | inactive: 0.022 | inactive: 0.037 | inactive: -0.005 | inactive: 0.027 | inactive: -0.005 | inactive: -0.009 | inactive: -0.005 | inactive: 0.005
11 | GPAT3 (UniProt Q53EU6) | inactive: 0 | inactive: 0.081 | inactive: -0.008 | inactive: -0.02 | inactive: -0.053 | inactive: 0.035 | inactive: -0.111 | inactive: 0.019 | inactive: -0.006 | inactive: 0.017
12 | GOLPH3 (UniProt Q9H4A6) | inactive: 0.001 | inactive: -0.123 | inactive: 0.075 | inactive: 0.015 | inactive: -0.1 | inactive: 0.051 | active: -0.6 | inactive: -0.018 | inactive: -0.024 | inactive: -0.011
13 | GLRX2 (UniProt Q9NS18) | inactive: 0.028 | inactive: -0.006 | inactive: 0.02 | inactive: 0.04 | inactive: 0.021 | inactive: 0.015 | inactive: -0.02 | inactive: -0.058 | inactive: -0.03 | inactive: 0.031
14 | GINS1 (UniProt Q14691) | inactive: -0.017 | inactive: -0.034 | inactive: -0.013 | inactive: -0.052 | inactive: -0.009 | inactive: -0.056 | inactive: 0.012 | inactive: 0.015 | inactive: 0.001 | inactive: -0.027

Shown in markdown: part of the list above.

| Row | Target | log2 fold change (alvocidib) | log2 fold change (Tubastatin A) | log2 fold change [1] | log2 fold change (defactinib) | log2 fold change [2] | log2 fold change (encorafenib) | log2 fold change [3] | log2 fold change (alisertib) | log2 fold change [4] | log2 fold change (gefitinib) |
| --- | --- | --- | --- | --- | --- | --- | --- | --- | --- | --- | --- |
| 9 | GPS1 isoform 6 (UniProt Q13098) | inactive: -0.043 | inactive: -0.014 | inactive: -0.042 | inactive: 0 | inactive: -0.047 | inactive: 0.035 | inactive: -0.016 | inactive: -0.035 | inactive: 0.024 | inactive: 0 |
| 10 | GPHN isoform 2 (UniProt Q9NQX3) | inactive: 0.001 | inactive: 0.041 | inactive: 0.022 | inactive: 0.037 | inactive: -0.005 | inactive: 0.027 | inactive: -0.005 | inactive: -0.009 | inactive: -0.005 | inactive: 0.005 |
